Reference: patent US6002071

How the values were obtained:
[1] = test system: TBBF (TAC-box binding factor) in nuclear / whole cell extract (Nicotiana tabacum); experiment: EMSA; conditions: protein in an extract
[2] = test system: TBBF (TAC-box binding factor, FPLC-purified + 17 and 19 kD polypeptides) (Nicotiana tabacum); experiment: EMSA; conditions: one complex with ds oligo; 7469 units/ug in E-FPLC-UF (1 unit binds 1 fmol oligo); purified native protein

Row | Sequence | binding result ([1]; variant of EAS4 promoter Fragment D wild type) | binding result ([1]; whole cell extracts, Mg2+ dependent, incubation with EDTA at 37 C inhibits) | binding result [2]
1 | CAACTCTAGTGTACTCCC (double strand) [EAS4 Fragment D with M2-TAC-box] | binds more weakly | – | –
2 | AGCTACTCTACAGTACTC / AGCTGAGTACTGTAGAGT [ds TAC-box oligonucleotide (dsTACc/dsTACn)] | – | binds | binds

Construct, isoform or probe ends are uncertain for at least one entry. For part of these data: Results from cells or extracts need not show a direct contact. For part of these data: A weaker result is weaker than the reference pair of the same experiment.
